Data taken from US20250339551A1 (HANGZHOU SEEHE BIOTECHNOLOGY CO., LTD, priority 2023, published 2025).

Assay: general procedure: hybrid (solid and solution phase) peptide synthesis; 2-chlorotrityl chloride resin; HOBt/DIC
Conditions: conjugation step

| Substance | conjugation yield |
| --- | --- |
| (37S,45S)-37-(4-(2,5-dioxo-2,5-dihydro-1H-pyrrol-1-yl)butanamido)-45- | 97% |
| ((2R,3R,5R)-5-(4-amino-2-oxopyrimidin-1 (2H)-yl)-3-((tert-butyldimethylsilyl) oxy)-4,4-difluorotetrahydrofuran-2-yl)methyl di-tert-butyl phosphate | 7% |

Same assay, conditions: coupling step

| Substance | step yield |
| --- | --- |
| 1-(((2S,3S)-1-(((1R,3R)-1-acetoxy-1-(4-(((2R,4S)-4-carboxy-1-phenylpentan-2-yl)carbamoyl)thiazol-2-yl)-4-methylpentan-3-yl)(methyl)amino)-3-methyl-1-oxopentan-2-yl)amino)-N-(4-((S)-2-((tert-butoxycarbonyl)amino)propanamido)benzyl)-N,N,2-trimethyl-1-oxopropan-2-aminium | 54% yield |
| ((S)-5-(tert-butoxy)-2-((S)-37-(4-(2,5-dioxo-2,5-dihydro-1H-pyrrol-1-yl) butanamido)-31,38-dioxo-2,5,8,11,14,17,20,23,26,29-decaoxa-32,39-diazatritetracontan-43-amido)-5-oxopentanoyl)-L-valine | 65% yield |
| benzyl (2S,4R)-4-(2-((6S,9R,11R,14S)-6-((S)-sec-butyl)-9-isopropyl-2,3,3,8,14,18,18-heptamethyl-4,7,13,16-tetraoxo-12,17-dioxa-2,5,8,15-tetraazanonadecan-11-yl)thiazole-4-carboxamido)-2-methyl-5-phenylpentanoate | 82% yield |
| benzyl (2S,4R)-4-(2-((6S,9R,11R,14S,17S)-6-((S)-sec-butyl)-9-isopropyl-2,3,3,8,14,17,21,21-octamethyl-4,7,13,16,19-pentaoxo-12,20-dioxa-2,5,8,15,18-pentaazadocosan-11-yl)thiazole-4-carboxamido)-2-methyl-5-phenylpentanoate | 100% yield |
| tert-butyl (2S,4R)-5-(3-((5S,8S)-1-(9H-fluoren-9-yl)-5-isopropyl-8-methyl-3,6,9-trioxo-2-oxa-4,7,10-triazatetradecan-14-amido)-4-hydroxyphenyl)-4-((tert-butoxycarbonyl)amino)-2-methylpentanoate | 100% yield |

Same assay, conditions: late stage modification step

| Substance | step yield |
| --- | --- |
| 1-(((2S,3S)-1-(((1R,3R)-1-acetoxy-1-(4-(((2R,4S)-4-carboxy-1-phenylpentan-2-yl)carbamoyl)thiazol-2-yl)-4-methylpentan-3-yl)(methyl)amino)-3-methyl-1-oxopentan-2-yl)amino)-N-(4-((S)-2-((S)-2-aminopropanamido)propanamido)benzyl)-N,N,2-trimethyl-1-oxopropan-2-aminium | 64% yield |
| (2S,4R)-4-(2-((6S,9R,11R,14S,17S)-6-((S)-sec-butyl)-9-isopropyl-2,3,3,8,14,17,21,21-octamethyl-4,7,13,16,19-pentaoxo-12,20-dioxa-2,5,8,15,18-pentaazadocosan-11-yl)thiazole-4-carboxamido)-2-methyl-5-phenylpentanoic acid | 44% yield |
| (2S,4R)-4-(2-((6S,9R,11R,14S,17S)-17-amino-6-((S)-sec-butyl)-9-isopropyl-2,3,3,8,14-pentamethyl-4,7,13,16-tetraoxo-12-oxa-2,5,8,15-tetraazaoctadecan-11-yl)thiazole-4-carboxamido)-2-methyl-5-phenylpentanoic acid | 100% yield |
| (2S,4R)-5-(3-((5S,8S)-1-(9H-fluoren-9-yl)-5-isopropyl-8-methyl-3,6,9-trioxo-2-oxa-4,7,10-triazatetradecan-14-amido)-4-hydroxyphenyl)-4-amino-2-methylpentanoic acid | 100% yield |
| benzyl (2S,4R)-4-(2-((1R,3R)-3-((2S,3S)-2-(2-(dimethylamino)-2-methylpropanamido)-N,3-dimethylpentanamido)-1-hydroxy-4-methylpentyl)thiazole-4-carboxamido)-2-methyl-5-phenylpentanoate | 85% yield |
| benzyl (2S,4R)-4-(2-((6S,9R,11R,14S)-14-amino-6-((S)-sec-butyl)-9-isopropyl-2,3,3,8-tetramethyl-4,7,13-trioxo-12-oxa-2,5,8-triazapentadecan-11-yl)thiazole-4-carboxamido)-2-methyl-5-phenylpentanoate | 100% yield |
| perfluorophenyl (37S,45S)-37-(4-(2,5-dioxo-2,5-dihydro-1H-pyrrol-1-yl) butanamido)-45- | 100% |

Same assay, conditions: whole synthesis

| Substance | crude yield |
| --- | --- |
| ((S)-2-((S)-37-((((9H-fluoren-9-yl)methoxy)carbonyl)amino)-31,38-dioxo-2,5,8,11,14,17,20,23,26,29-decaoxa-32,39-diazatritetracontan-43-amido)-5-(tert-butoxy)-5-oxopentanoyl)-L-alanyl-L-alanine | 96% yield |
| ((S)-2-((S)-37-((((9H-fluoren-9-yl)methoxy)carbonyl)amino)-31,38-dioxo-2,5,8,11,14,17,20,23,26,29-decaoxa-32,39-diazatritetracontan-43-amido)-5-(tert-butoxy)-5-oxopentanoyl)-L-valine | 84% yield |
| ((S)-5-(tert-butoxy)-2-((S)-37-(4-(2,5-dioxo-2,5-dihydro-1H-pyrrol-1-yl) butanamido)-31,38-dioxo-2,5,8,11,14,17,20,23,26,29-decaoxa-32,39-diazatritetracontan-43-amido)-5-oxopentanoyl)-L-alanyl-L-alanine | 100% yield |

Assay: Fmoc solid-phase peptide synthesis; 2-chlorotrityl chloride resin; HOBt/DIC
Conditions: whole synthesis

| Substance | crude yield |
| --- | --- |
| ((S)-7-((S)-7-(3-(2-(2-(4-(2,5-dioxo-2,5-dihydro-1H-pyrrol-1-yl)butanamido)ethoxy)ethoxy)propanamido)-2,2-dimethyl-4,8-dioxo-3,12,15-trioxa-9-azaoctadecan-18-amido)-2,2-dimethyl-4,8-dioxo-3,12,15-trioxa-9-azaoctadecan-18-oyl)-L-valine-CTC resin | 51% |
